# According to the supplement of paper PMC10849652:
# Chains of the proteins cited; added tags and fusions are not shown. Lines headed by an entry give the natural chain unless they say otherwise; changes in a name come on top.
# UniProt P33176: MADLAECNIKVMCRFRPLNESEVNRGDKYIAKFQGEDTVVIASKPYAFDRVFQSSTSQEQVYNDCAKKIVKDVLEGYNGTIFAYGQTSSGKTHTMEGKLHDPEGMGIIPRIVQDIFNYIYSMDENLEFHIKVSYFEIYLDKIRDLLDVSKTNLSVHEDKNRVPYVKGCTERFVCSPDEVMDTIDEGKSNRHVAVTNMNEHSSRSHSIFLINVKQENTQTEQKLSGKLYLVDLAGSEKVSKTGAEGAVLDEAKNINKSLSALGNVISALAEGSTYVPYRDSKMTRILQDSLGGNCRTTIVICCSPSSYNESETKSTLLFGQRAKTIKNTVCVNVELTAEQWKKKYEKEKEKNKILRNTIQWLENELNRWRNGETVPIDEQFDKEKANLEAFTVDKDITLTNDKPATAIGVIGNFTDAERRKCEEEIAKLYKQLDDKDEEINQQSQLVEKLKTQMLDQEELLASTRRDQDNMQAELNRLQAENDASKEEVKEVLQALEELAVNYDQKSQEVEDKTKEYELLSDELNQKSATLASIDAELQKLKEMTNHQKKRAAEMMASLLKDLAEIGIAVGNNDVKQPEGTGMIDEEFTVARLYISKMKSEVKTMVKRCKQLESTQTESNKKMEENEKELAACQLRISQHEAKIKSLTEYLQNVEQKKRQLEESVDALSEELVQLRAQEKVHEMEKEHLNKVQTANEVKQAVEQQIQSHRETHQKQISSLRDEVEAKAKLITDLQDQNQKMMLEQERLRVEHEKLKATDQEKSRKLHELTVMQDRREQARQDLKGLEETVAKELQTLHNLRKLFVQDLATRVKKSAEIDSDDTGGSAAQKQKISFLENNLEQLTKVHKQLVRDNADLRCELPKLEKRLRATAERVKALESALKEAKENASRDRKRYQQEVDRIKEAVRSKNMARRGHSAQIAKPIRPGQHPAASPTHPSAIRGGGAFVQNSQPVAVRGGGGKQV
# UniProt Q8IYS2: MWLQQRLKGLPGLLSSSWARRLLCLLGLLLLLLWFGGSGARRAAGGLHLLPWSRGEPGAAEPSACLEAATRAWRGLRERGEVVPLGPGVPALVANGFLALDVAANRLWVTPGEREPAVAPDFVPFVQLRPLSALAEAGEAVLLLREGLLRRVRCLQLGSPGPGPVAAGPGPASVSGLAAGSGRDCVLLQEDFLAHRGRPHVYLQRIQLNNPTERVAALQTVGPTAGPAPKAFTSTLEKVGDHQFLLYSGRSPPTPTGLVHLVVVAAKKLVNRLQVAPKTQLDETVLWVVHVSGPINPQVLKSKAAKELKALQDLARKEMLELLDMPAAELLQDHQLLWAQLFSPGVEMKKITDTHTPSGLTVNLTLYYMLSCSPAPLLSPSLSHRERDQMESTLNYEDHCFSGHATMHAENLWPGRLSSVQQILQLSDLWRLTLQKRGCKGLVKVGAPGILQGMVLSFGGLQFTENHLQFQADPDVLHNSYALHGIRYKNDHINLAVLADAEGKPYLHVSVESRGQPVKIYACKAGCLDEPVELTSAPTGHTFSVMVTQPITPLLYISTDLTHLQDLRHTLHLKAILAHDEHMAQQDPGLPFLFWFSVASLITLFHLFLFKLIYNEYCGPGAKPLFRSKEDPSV
# UniProt O60333: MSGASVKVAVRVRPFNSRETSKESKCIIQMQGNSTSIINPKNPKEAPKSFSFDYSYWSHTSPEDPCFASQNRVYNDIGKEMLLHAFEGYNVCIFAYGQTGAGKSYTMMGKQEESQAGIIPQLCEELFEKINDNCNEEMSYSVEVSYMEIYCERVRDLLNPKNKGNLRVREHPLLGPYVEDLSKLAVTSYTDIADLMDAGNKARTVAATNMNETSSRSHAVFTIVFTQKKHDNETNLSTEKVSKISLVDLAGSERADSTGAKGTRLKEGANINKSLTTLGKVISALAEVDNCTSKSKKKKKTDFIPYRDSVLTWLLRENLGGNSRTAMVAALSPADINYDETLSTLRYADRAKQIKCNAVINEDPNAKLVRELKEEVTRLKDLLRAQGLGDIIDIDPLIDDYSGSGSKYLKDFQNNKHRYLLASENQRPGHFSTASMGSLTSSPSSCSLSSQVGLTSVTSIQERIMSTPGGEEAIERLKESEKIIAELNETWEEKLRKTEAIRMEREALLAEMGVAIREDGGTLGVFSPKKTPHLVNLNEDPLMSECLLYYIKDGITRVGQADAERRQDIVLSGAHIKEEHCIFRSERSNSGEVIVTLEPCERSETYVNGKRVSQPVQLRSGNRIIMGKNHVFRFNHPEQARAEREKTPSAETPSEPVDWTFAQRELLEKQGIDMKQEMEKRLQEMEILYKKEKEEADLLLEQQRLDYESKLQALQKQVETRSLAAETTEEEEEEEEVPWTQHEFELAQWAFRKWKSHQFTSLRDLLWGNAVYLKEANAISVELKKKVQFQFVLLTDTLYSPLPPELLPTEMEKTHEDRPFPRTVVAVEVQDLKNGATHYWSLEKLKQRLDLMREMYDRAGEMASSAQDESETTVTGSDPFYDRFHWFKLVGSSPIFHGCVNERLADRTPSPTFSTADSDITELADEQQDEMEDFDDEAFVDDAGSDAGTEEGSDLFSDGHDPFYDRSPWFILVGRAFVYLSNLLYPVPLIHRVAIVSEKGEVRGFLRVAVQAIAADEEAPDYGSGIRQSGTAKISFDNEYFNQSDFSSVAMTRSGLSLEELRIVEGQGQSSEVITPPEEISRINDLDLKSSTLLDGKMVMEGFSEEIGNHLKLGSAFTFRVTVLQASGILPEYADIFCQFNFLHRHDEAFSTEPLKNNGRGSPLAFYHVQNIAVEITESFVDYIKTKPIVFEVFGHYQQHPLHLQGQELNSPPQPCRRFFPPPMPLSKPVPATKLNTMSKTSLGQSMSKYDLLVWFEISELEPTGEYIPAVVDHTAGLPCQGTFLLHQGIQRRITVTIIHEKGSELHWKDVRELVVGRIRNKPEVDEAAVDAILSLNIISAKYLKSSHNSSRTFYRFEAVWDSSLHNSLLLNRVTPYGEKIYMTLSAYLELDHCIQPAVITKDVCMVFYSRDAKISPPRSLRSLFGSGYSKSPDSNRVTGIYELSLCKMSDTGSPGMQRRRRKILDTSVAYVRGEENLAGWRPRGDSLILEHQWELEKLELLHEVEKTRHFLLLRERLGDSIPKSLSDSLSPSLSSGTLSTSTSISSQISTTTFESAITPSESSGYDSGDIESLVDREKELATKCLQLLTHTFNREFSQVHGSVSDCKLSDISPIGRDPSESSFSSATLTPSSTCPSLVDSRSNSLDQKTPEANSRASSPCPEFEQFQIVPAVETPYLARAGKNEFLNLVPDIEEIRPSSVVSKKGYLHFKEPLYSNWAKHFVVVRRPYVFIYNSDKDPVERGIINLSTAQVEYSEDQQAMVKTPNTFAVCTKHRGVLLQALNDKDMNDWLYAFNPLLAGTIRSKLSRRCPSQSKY
# UniProt Q9Y664: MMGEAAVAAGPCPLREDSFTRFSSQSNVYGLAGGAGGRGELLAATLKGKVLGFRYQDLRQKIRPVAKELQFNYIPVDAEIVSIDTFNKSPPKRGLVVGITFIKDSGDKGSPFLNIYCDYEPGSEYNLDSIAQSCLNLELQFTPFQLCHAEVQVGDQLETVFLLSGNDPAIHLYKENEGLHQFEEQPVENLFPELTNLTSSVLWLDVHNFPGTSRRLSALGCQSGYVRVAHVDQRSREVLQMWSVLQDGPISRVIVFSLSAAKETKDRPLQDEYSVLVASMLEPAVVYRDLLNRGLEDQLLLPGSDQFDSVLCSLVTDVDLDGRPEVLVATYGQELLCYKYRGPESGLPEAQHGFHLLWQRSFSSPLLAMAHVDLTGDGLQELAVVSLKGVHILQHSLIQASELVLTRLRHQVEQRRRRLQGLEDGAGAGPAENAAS
# UniProt Q8N371: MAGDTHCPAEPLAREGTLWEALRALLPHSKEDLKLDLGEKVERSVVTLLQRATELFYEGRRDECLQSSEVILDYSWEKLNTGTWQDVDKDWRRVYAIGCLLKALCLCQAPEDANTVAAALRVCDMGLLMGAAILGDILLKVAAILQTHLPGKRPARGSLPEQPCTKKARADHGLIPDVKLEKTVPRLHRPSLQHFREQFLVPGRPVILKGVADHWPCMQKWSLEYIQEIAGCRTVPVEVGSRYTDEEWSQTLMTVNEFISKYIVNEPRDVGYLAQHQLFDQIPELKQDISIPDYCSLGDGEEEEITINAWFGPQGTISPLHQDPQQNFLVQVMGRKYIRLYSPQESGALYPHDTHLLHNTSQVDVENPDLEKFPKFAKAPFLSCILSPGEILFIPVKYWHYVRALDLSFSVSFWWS
# UniProt Q9BQ90: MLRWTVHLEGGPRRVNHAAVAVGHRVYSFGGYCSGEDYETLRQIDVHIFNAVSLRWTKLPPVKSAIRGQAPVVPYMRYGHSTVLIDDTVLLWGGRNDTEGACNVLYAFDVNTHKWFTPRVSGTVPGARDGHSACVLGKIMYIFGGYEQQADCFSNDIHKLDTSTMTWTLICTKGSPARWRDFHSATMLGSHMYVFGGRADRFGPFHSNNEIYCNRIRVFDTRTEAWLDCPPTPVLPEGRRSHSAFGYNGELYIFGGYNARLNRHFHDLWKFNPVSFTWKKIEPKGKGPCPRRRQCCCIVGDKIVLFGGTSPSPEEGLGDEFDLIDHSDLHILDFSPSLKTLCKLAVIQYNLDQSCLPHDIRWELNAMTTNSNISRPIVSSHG
# UniProt Q12840: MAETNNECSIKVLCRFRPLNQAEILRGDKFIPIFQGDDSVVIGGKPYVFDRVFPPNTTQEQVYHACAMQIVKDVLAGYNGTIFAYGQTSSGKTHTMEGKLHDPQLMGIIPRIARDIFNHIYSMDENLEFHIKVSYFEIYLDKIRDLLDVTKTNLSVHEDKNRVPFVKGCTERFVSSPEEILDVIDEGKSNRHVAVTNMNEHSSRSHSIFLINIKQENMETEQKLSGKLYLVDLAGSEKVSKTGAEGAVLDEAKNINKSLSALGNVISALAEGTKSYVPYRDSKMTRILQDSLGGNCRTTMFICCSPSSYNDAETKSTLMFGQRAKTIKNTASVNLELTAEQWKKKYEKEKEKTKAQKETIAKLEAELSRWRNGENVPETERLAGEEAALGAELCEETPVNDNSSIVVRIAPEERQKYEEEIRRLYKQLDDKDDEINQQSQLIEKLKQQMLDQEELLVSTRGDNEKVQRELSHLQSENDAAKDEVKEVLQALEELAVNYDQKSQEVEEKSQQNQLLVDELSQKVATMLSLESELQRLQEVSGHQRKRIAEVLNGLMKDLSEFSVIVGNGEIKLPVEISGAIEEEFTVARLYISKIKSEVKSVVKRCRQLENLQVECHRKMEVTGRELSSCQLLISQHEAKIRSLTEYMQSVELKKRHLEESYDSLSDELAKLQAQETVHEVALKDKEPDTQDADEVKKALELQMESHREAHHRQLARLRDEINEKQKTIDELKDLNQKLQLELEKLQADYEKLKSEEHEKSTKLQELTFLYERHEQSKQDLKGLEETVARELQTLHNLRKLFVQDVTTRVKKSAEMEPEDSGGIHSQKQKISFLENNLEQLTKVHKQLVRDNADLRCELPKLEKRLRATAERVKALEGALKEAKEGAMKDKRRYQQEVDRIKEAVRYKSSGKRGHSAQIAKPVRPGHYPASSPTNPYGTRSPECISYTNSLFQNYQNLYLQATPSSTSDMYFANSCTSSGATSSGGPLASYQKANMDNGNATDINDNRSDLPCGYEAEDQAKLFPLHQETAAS
# UniProt Q16773: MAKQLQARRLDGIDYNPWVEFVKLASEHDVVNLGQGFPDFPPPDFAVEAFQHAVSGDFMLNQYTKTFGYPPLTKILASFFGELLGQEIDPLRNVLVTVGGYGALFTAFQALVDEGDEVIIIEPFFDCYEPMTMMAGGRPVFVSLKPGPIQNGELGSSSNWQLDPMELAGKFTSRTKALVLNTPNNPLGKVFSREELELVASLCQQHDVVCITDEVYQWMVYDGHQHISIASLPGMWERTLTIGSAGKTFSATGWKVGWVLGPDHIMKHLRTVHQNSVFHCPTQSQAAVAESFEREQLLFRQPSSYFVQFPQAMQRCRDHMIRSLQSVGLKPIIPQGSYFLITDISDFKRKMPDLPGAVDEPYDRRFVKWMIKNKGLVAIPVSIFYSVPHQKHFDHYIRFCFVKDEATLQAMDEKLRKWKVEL
# UniProt O60870: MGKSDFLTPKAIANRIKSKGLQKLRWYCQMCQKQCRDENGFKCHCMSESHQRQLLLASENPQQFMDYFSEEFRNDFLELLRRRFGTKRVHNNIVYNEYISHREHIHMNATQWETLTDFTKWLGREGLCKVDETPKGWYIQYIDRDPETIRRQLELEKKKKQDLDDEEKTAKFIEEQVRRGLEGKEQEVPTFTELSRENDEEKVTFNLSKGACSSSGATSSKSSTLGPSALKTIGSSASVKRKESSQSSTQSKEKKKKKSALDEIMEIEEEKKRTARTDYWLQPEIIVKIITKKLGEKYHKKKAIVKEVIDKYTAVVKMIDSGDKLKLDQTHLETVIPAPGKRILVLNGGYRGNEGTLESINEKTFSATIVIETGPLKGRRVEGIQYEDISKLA
# The other results are listed elsewhere or left out.
# Compound: CC1=C(C=C(C=C1)NC(=O)C2=CC(=CC=C2)N(C)C)NC(=O)C3=CC=C(C=C3)O
# Assay: log2 fold change, soluble protein after heating vs DMSO (PISA); higher = thermal stabilisation; K562 lysate, 10 uM; active = over 0.2 and 3.5 SD of the protein, either way, in both replicates (recomputed)
# Procedure, shortened: (§1)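 Log-two fold change in thermal stability relative to solvent controls is reported from duplicates. For each sample, crude K562 extract from dounce-homogenised pellets in PBS pH 7.4 with 1 mM MgCl2, at 1 mg/mL protein, was treated with 10 μM compound for 30 min. Aliquots heated for 3 min across 48°C-58°C were pooled, brought to 0.5% NP-40 at 4°C and cleared at 21,000xg for 90 min. The supernatant was quantified by TMTpro 16plex LC-MS/MS with channel sums equalised.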
row,Target,log2 fold change
1,KLHDC4 (UniProt Q8TBB5),inactive: 0.013
2,KIF5B (UniProt P33176),inactive: -0.001
3,KIAA2013 (UniProt Q8IYS2),inactive: -0.029
4,KIF1B isoform 2 (UniProt O60333),inactive: 0.01
5,KTI12 (UniProt Q96EK9),inactive: 0.045
6,KDSR (UniProt Q06136),inactive: 0.031
7,KIF2C (UniProt Q99661),inactive: 0.039
8,LANCL1 (UniProt O43813),inactive: 0.009
9,KPTN (UniProt Q9Y664),inactive: 0.019
10,LARP7 isoform 3 (UniProt Q4G0J3),inactive: 0.027
11,KDM8 isoform 3 (UniProt Q8N371),inactive: -0.005
12,KEAP1 (UniProt Q14145),inactive: 0.019
13,KLC2 (UniProt Q9H0B6),inactive: 0.016
14,KPNB1 (UniProt Q14974),inactive: 0.009
15,KSR1 (UniProt Q8IVT5),inactive: 0.019
16,KPNA2 (UniProt P52292),inactive: 0.051

row,Target,log2 fold change
1,KLHDC3 (UniProt Q9BQ90),inactive: 0.008
2,KYAT3 (UniProt Q6YP21),inactive: -0.019
3,LARP4 isoform 4 (UniProt Q71RC2),inactive: -0.018
4,KIF5A (UniProt Q12840),inactive: -0.015
5,KIAA1191 (UniProt Q96A73),inactive: -0.028
6,KIF2A isoform 4 (UniProt O00139),inactive: 0.032
7,KIAA1324L (UniProt A8MWY0),inactive: 0.023
8,KLHL18 (UniProt O94889),inactive: 0.011
9,KIF15 (UniProt Q9NS87),inactive: 0.036
10,KRR1 (UniProt Q13601),inactive: 0.093
11,LACTB (UniProt P83111),inactive: 0.09
12,KXD1 (UniProt Q9BQD3),inactive: -0.04
13,KMT2D isoform 3 (UniProt O14686),inactive: 0.014
14,KYAT1 (UniProt Q16773),inactive: -0.01
15,KIN (UniProt O60870),inactive: 0.023
16,LAMTOR4 (UniProt Q0VGL1),inactive: -0.019

# Compound: CC1=CC=C(C=C1)SC2=C3C=C(SC3=CN=C2)C(=O)N
# Assay: as above
# Procedure, shortened: as §1
row,Target,log2 fold change
1,KLHDC4 (UniProt Q8TBB5),inactive: 0.028
2,KIF5B (UniProt P33176),inactive: -0.004
3,KIAA2013 (UniProt Q8IYS2),inactive: 0.013
4,KIF1B isoform 2 (UniProt O60333),inactive: 0.004
5,KTI12 (UniProt Q96EK9),inactive: 0.028
6,KDSR (UniProt Q06136),inactive: -0.051
7,KIF2C (UniProt Q99661),inactive: 0.016
8,LANCL1 (UniProt O43813),inactive: -0.001
9,KPTN (UniProt Q9Y664),inactive: 0.051
10,LARP7 isoform 3 (UniProt Q4G0J3),inactive: 0.001
11,KDM8 isoform 3 (UniProt Q8N371),inactive: -0.008
12,KEAP1 (UniProt Q14145),inactive: -0.024
13,KLC2 (UniProt Q9H0B6),inactive: -0.012
14,KPNB1 (UniProt Q14974),inactive: -0.009
15,KSR1 (UniProt Q8IVT5),inactive: -0.074
16,KPNA2 (UniProt P52292),inactive: 0.041

row,Target,log2 fold change
1,KLHDC3 (UniProt Q9BQ90),inactive: -0.063
2,KYAT3 (UniProt Q6YP21),inactive: 0
3,LARP4 isoform 4 (UniProt Q71RC2),inactive: 0.029
4,KIF5A (UniProt Q12840),inactive: 0.006
5,KIAA1191 (UniProt Q96A73),inactive: -0.063
6,KIF2A isoform 4 (UniProt O00139),inactive: 0.018
7,KIAA1324L (UniProt A8MWY0),inactive: -0.005
8,KLHL18 (UniProt O94889),inactive: 0.022
9,KIF15 (UniProt Q9NS87),inactive: -0.015
10,KRR1 (UniProt Q13601),inactive: -0.027
11,LACTB (UniProt P83111),inactive: 0.022
12,KXD1 (UniProt Q9BQD3),inactive: 0.028
13,KMT2D isoform 3 (UniProt O14686),inactive: 0.003
14,KYAT1 (UniProt Q16773),inactive: -0.025
15,KIN (UniProt O60870),inactive: -0.015
16,LAMTOR4 (UniProt Q0VGL1),inactive: 0.002
